Measurements from article PMC7016952, “Characterization of the Menin-MLL Interaction as Therapeutic Cancer Target” (Cancers, 2020).
No constants are given. Whether binding was seen depends on the method and setting. Some entries that bind do so weakly or less than the wild type. Where a sequence is shown, tags or fusion partners need not be part of it.

Sequences of proteins named here, by UniProt entry; tags and fusion partners are left off. A change or cut given only in a name is not applied to a line headed by its entry.
UniProt Q03164: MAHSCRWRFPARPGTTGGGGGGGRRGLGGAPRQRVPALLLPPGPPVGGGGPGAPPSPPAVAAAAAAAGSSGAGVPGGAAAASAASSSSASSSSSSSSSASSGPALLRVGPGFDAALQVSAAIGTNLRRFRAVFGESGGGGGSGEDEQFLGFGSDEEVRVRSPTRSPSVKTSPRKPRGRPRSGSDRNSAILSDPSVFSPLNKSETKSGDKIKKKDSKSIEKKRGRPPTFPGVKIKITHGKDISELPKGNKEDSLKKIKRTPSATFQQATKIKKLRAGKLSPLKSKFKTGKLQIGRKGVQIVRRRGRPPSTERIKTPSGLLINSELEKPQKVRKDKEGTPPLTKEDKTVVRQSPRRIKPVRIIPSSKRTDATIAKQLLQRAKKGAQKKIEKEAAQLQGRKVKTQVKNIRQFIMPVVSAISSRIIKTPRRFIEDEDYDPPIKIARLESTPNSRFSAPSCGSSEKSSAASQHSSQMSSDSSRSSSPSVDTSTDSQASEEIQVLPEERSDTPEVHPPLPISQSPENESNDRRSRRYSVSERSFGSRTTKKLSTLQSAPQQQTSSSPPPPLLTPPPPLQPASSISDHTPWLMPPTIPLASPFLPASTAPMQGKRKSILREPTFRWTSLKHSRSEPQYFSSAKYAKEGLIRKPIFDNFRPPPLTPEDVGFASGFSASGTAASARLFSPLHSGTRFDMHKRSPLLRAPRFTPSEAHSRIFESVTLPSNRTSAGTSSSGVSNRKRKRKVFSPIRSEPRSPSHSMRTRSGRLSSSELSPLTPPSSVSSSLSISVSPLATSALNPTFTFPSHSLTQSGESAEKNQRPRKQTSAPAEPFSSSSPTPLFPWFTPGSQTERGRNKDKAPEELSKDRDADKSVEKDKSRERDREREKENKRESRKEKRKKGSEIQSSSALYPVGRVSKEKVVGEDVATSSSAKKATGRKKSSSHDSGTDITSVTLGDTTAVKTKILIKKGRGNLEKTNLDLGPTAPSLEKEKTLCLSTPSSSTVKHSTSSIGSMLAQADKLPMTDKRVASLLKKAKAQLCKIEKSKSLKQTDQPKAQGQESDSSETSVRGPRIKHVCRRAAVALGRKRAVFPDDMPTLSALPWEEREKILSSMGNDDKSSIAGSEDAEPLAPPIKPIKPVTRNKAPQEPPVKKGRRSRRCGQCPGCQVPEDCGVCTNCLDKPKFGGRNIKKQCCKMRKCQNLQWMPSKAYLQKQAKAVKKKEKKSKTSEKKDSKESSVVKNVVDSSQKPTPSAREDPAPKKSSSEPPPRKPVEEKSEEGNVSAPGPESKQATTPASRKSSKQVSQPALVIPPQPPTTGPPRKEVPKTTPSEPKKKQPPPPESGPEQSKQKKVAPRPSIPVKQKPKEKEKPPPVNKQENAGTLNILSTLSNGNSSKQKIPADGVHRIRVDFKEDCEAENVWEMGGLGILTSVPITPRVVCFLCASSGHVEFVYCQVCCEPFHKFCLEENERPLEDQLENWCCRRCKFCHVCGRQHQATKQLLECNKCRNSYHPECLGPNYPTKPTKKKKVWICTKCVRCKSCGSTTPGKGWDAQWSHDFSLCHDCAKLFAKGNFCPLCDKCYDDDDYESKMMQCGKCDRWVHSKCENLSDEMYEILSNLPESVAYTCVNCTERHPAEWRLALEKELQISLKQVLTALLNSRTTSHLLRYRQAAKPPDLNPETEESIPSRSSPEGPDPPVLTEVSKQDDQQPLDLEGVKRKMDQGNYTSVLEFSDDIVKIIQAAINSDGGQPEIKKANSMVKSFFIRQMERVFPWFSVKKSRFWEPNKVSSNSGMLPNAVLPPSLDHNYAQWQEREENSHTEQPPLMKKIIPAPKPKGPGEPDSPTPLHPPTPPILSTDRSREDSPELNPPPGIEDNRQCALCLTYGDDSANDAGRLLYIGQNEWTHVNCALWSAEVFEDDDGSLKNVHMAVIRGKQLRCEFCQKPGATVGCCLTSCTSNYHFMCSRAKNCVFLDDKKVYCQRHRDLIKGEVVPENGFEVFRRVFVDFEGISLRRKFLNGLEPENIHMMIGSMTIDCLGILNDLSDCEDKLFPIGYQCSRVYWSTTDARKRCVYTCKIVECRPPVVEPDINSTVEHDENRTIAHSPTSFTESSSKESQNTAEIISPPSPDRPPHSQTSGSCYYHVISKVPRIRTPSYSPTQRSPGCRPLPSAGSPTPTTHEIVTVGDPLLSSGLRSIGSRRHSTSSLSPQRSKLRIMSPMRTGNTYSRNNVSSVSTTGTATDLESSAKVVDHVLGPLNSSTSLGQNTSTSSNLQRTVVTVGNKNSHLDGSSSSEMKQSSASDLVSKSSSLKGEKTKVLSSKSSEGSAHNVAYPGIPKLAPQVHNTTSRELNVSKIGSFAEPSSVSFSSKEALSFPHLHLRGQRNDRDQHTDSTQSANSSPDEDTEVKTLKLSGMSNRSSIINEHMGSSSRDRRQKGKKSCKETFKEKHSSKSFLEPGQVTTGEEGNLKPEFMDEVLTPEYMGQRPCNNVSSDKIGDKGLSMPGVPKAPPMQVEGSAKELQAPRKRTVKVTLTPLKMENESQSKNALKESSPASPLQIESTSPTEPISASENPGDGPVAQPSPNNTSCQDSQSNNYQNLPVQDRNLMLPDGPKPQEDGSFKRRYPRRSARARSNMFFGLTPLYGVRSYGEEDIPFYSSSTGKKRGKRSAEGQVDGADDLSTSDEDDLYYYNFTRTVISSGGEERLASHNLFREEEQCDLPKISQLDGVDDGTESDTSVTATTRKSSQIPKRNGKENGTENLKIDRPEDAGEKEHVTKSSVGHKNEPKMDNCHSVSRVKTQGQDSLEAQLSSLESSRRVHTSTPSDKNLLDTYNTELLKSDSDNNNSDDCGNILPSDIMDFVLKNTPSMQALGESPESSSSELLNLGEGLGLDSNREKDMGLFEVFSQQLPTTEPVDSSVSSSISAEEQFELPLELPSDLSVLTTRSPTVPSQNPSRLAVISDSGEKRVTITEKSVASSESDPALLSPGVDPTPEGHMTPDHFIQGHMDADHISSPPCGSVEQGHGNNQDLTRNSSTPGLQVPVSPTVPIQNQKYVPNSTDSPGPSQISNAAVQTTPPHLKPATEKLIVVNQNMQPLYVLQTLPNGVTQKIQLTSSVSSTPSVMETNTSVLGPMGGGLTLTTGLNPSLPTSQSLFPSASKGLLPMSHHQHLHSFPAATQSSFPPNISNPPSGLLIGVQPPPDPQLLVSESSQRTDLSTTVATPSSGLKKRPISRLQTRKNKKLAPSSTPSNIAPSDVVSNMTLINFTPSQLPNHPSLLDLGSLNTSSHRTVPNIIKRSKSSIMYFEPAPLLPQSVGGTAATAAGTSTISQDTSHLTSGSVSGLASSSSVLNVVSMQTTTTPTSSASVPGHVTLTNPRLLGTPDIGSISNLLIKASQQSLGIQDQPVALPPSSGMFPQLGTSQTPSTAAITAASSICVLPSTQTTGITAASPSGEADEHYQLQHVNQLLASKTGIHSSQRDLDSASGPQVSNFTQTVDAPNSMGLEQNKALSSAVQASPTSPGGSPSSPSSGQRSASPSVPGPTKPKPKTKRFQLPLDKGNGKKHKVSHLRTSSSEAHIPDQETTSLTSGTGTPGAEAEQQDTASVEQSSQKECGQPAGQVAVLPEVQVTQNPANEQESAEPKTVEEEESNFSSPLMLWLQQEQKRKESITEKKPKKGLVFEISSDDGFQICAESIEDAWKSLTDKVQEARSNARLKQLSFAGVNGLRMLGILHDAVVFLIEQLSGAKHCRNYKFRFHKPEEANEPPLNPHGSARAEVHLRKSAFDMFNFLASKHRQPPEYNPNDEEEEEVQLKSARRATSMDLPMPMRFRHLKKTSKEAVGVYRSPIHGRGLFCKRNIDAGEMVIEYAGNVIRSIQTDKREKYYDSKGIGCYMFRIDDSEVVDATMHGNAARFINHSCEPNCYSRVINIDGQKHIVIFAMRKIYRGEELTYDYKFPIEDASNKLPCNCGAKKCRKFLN

Target: T1, recombinant full length, His-tagged menin (human) (UniProt O00255)
T1 sequence: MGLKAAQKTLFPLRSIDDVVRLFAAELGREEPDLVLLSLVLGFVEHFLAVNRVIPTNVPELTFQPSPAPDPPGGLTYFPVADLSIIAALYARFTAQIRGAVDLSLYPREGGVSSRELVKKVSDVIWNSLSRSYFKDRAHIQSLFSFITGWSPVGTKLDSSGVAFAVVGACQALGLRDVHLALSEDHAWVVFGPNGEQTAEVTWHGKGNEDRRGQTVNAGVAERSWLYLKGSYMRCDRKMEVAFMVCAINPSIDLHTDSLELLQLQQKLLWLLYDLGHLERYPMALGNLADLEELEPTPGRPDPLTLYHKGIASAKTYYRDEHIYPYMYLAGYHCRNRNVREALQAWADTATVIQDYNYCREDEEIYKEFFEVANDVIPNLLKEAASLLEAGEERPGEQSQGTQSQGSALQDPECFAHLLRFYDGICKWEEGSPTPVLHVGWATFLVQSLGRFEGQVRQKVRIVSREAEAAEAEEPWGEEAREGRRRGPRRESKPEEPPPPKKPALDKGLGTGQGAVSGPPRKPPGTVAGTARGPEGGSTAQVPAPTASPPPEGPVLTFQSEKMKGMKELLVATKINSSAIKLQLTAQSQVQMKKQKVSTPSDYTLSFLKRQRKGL
Test: AlphaScreen or HTRF; TR-FRET competition assay: 2 nM His-menin, 50 nM biotinylated MLL1 peptide, 2 nM anti-6XHis-Tb cryptate and 50 nM Streptavidin XL-665 (Cisbio), 0.1 nM to 20 uM small-molecule test compounds; 50 mM Tris/HCl pH 7.5, 50 mM NaCl, 0.1% BSA, 1 mM DTT; 0.5-4 h at RT; vehicle control = full binding; both purified

binding: binds
Substance: synthetic biotinylated MLL1 a.a. 4-15 (from UniProt Q03164 4-15) (peptide)
